{
  "sequences": {"note": "Sequences of proteins named here, by UniProt entry; tags and fusion partners are left off. A change or cut given only in a name is not applied to a line headed by its entry.", "UniProt P11802": "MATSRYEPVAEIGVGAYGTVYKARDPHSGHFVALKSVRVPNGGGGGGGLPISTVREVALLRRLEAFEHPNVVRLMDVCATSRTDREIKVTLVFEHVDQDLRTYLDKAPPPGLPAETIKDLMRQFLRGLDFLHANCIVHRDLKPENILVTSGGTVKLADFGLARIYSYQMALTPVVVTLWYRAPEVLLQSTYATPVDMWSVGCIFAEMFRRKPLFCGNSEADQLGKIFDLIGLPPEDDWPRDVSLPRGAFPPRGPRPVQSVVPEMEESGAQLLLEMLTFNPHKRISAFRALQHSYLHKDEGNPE"},
  "source": "the supplement of paper PMC12823440",
  "about": "“Inhibitors supercharge kinase turnover through native proteolytic circuits” (Nature, 2025)",
  "note": "Counter-ions that a name gives are not always drawn. The list shows a part of the results. Hit calls seldom repeat between salt and free forms of one compound.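 Kinases, fused to nanoluciferase, were expressed in K562 cells; luminescence was measured every 4 h from 2 to 18 h as percent of control (DMSO = 100%, positive control = 0%). A time point is decreased if signal falls significantly (2 sigma). Hits were called by the authors by a rule that is not shown; the count of time points alone does not decide it.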",
  "data": [
    {"target": "CDK4 (UniProt P11802)", "assay": "number of time points (of 4; 2 h point missing) at which kinase-Nluc abundance scored as decreased, DMSO-normalised (count); higher = more persistent destabilization", "details": "K562; 2-18 h", "values": [
      {"smiles": "O=C(O)c1cc(N(Cc2ccccc2O)Cc2ccccc2O)ccc1O", "note": "[Lavendustin B] (10 µM)", "number of time points": 0},
      {"smiles": "Cc1ccc2c(Nc3cccc(Cl)c3F)nccc2c1NC(=O)c1csc2c(N)ncnc12", "note": "[Belvarafenib] (10 µM)", "number of time points": 2},
      {"smiles": "Cn1cc(-c2cnc3cnn(S(=O)(=O)c4cnc5ccc(-c6cnn(C)c6)cn45)c3c2)cn1", "note": "[Glumetinib] (10 µM)", "number of time points": 0},
      {"smiles": "CNC(=O)c1ccccc1Oc1nc(Nc2cc(OC)c(OC)c(OC)c2)ncc1Br", "note": "(2.5 µM)", "number of time points": 0},
      {"smiles": "COc1cc(-c2cn[nH]c2)ccc1C(=O)Nc1ccc2c(c1)CCNCC2", "note": "(10 µM)", "number of time points": 0},
      {"smiles": "COCCNc1cc(NC(=O)N2CCCc3cc(CN4CCN(C)CC4=O)c(C=O)nc32)ncc1C#N", "note": "[Roblitinib] (10 µM)", "number of time points": 0},
      {"smiles": "CC(C)c1cc(/C=C(\\C#N)C(=O)NCCCc2ccccc2)cc(C(C)C)c1O", "note": "(10 µM)", "number of time points": 0},
      {"smiles": "C=CCc1ccc(O)c(-c2ccc(O)c(CC=C)c2)c1", "note": "[Honokiol] (10 µM)", "number of time points": 0},
      {"smiles": "CNc1nc(Nc2cn(C(C)(C)C#N)nc2C)ncc1C(F)(F)F", "note": "(10 µM)", "number of time points": 0},
      {"smiles": "C[C@@H]1CCNC(=O)c2cc3ccc(C(=O)Nc4nc5ccccc5n4CCCN(C)C)cc3n21", "note": "(10 µM)", "number of time points": 0},
      {"smiles": "CCc1cncnc1N1CCN(Cc2nc3ccc(C(F)(F)F)cc3[nH]2)CC1", "note": "(10 µM)", "number of time points": 0},
      {"smiles": "CCN(CC)CCC(=O)N1N=C(c2c(-c3ccccc3)c3cc(Br)ccc3[nH]c2=O)CC1c1ccc(Br)cc1", "note": "(centres undefined) (2.5 µM)", "number of time points": 0},
      {"smiles": "Nc1cccc(-c2cc3c(Oc4cccc(O)c4)ncnc3[nH]2)c1", "note": "(10 µM)", "number of time points": 0},
      {"smiles": "CCc1cccc(CC)c1NC(=O)N1Cc2[nH]nc(NC(=O)c3ccc(N4CCN(C)CC4)cc3)c2C1", "note": "(2.5 µM)", "number of time points": 0},
      {"smiles": "COc1ccccc1C(=O)/C=C/c1ccccc1C(=O)O", "note": "(10 µM)", "number of time points": 0},
      {"smiles": "Cc1c(-c2ccc(C(N)=O)c3[nH]c4cc(C(C)(C)O)ccc4c23)cccc1-n1cnc2ccccc2c1=O", "note": "(2.5 µM)", "number of time points": 0},
      {"smiles": "O=C1NC(=O)/C(=C/c2ccc3nccc(-c4ccncc4)c3c2)S1", "note": "(10 µM)", "number of time points": 0},
      {"smiles": "O=[N+]([O-])c1ccc(Nc2nc(N3CCOCC3)nc(N3CCOCC3)n2)cc1", "note": "(10 µM)", "number of time points": 0},
      {"smiles": "Cc1cc(C)nc(NS(=O)(=O)c2ccc(NC(=S)NC(=O)COc3ccc(Br)cc3Cl)cc2)n1", "note": "(2.5 µM)", "number of time points": 0},
      {"smiles": "CCCNC(=O)Nc1ccc(Oc2ncnc3cc(OC)c(OC)cc23)cc1Cl", "note": "(2.5 µM)", "number of time points": 0},
      {"smiles": "CNC(=O)c1cc2c(Oc3ccc(NC(=S)NC(=O)Cc4ccccc4)cc3F)ccnc2cc1OC", "note": "[TAS-115 mesylate] (10 µM)", "number of time points": 0},
      {"smiles": "Cn1cc2cc(C(F)(F)c3nnc4ccc(-c5cnn(C6CC6)c5)nn34)c(F)cc2n1", "note": "[Bozitinib] (10 µM)", "number of time points": 0},
      {"smiles": "COc1cc2ncnc(Nc3ccccc3)c2cc1OC", "note": "(10 µM)", "number of time points": 0},
      {"smiles": "Cc1cccc(-c2[nH]c(C(C)(C)C)nc2-c2ccc3nccnc3c2)n1", "note": "(10 µM)", "number of time points": 0},
      {"smiles": "Oc1cc(O)c2c(c1)OC1(c3ccc(O)c(O)c3)Oc3cc(O)c4c(c3C2C1O)OC(c1ccc(O)c(O)c1)C(O)C4", "note": "(centres undefined) [Procyanidin A1] (10 µM)", "number of time points": 0},
      {"smiles": "CC(C)C[C@@H](C(=O)Nc1ccn(C[C@@H](O)CO)n1)N1CC(Oc2ccccc2Cl)=CC1=O", "note": "[Dorzagliatin] (10 µM)", "number of time points": 0},
      {"smiles": "C=CC(=O)Nc1cc(Nc2nccc(-n3cc(CN(C)C)c(-c4ccccc4)n3)n2)c(OC)cc1N1CCOCC1", "note": "[Lazertinib] (10 µM)", "number of time points": 0},
      {"smiles": "CC(=O)c1c(C)c2cnc(Nc3ccc(N4CCN(C(=O)CNc5cccc6c5C(=O)N(C5CCC(=O)NC5=O)C6=O)CC4)cn3)nc2n(C2CCCC2)c1=O", "note": "(centres undefined) (10 µM)", "number of time points": 4},
      {"smiles": "CC(C)(C)n1nc(Cc2ccccc2O)c2c(N)ncnc21", "note": "(10 µM)", "number of time points": 0},
      {"smiles": "c1ccc(-c2nc(=NCCN3CCOCC3)sn2-c2ccccc2)cc1", "note": "[VP3.15 (dihydrobromide)] (10 µM)", "number of time points": 0},
      {"smiles": "NC(=O)N1CCC(CC(=O)N2CCC([C@H]3c4ncc(Br)cc4CCc4cc(Cl)cc(Br)c43)CC2)CC1", "note": "[Lonafarnib] (2.5 µM)", "number of time points": 0},
      {"smiles": "O=c1cc(-c2cccc3c2Sc2ccccc2S3)oc(N2CCOCC2)c1", "note": "(10 µM)", "number of time points": 0},
      {"smiles": "CN1CC[C@@H](c2c(O)cc(O)c3c(=O)cc(-c4ccc(C(F)(F)F)cc4Cl)oc23)[C@@H]1CO", "note": "[Voruciclib (hydrochloride)] (10 µM)", "number of time points": 0},
      {"smiles": "CC(=O)N1CCC(c2cc(-c3ccc(NC(=O)c4cccn(-c5ccc(F)cc5)c4=O)cc3F)c3c(N)ncnn23)CC1", "note": "(0.5 µM)", "number of time points": 0},
      {"smiles": "CC(C)(C[C@H](N)C(=O)O)C(F)F", "note": "[NV-5138 (hydrochloride)] (10 µM)", "number of time points": 0},
      {"smiles": "CC/C(=N\\NC(=O)c1ccnc(NCCCN2CCOCC2)c1)c1ccc(Cl)cc1O", "note": "(2.5 µM)", "number of time points": 0},
      {"smiles": "CC(C)CNc1ccnc(NCc2csc(-c3ccccc3)n2)n1", "note": "[KHS101 hydrochloride] (2.5 µM)", "number of time points": 0},
      {"smiles": "Nc1nccc(Oc2ccc(NC(=O)c3c[nH]cc(-c4ccc(F)cc4)c3=O)cc2F)c1Cl", "note": "(10 µM)", "number of time points": 0},
      {"smiles": "Cc1nc(-c2cnn(C)c2)nc2c1[nH]c1ncc(-c3ccc(N4CCN(C)CC4)cc3)cc12", "note": "[GNE 220 (hydrochloride)] (10 µM)", "number of time points": 0}
    ]}
  ]
}
